# Measurements: PubChem BioAssay AID687031 (Broad Institute, 2013)
# Among all 1,400 compounds or so, about 50 (4%) were called active.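 Rule for the calls: active = fitted curve reaches 30% CPE protection at or below the top valid dose, with every test run called active; inconclusive = test runs disagree, some active and some not; inactive = every test run inactive, including effects in the wrong direction.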 Some of the results follow. Measured potencies and affinities stand elsewhere.
# Experiment: antiviral rescue of DENV2-infected BHK-21 cells – cell-based, ATP luminescence, cherry-pick, dose response (AID 687031);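 note: 0% = infected DMSO wells and 100% = uninfected cell wells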
# Conditions: BHK-21 DENV2 CPE protection, 5 d; at 19.5 µM (top of the series) unless noted
row,SMILES,CPE protection (higher = active)
1,Cc1ccc(S(=O)(=O)N(C)C[C@@H]2OCCCC[C@H](C)Oc3ccc(NS(=O)(=O)c4c(C)noc4C)cc3C(=O)N([C@H](C)CO)C[C@@H]2C)cc1,inactive: -10.2%
2,COc1ccccc1NC(=O)N1CCN(c2ccccn2)CC1,inactive: -9.27%
3,CN1c2ccc(-c3cccc(F)c3)cc2[C@H]2[C@H](CCN2C(=O)Cc2cccnc2)[C@H]1CO,inactive: -9.94%
4,CN(C)c1ccc(CNS(=O)(=O)c2ccc3c(c2)C(C)(C)C(=O)N3C)cc1,inactive: -18.5%
5,CCCS(=O)(=O)N1CCCC(C(=O)NCCc2cccc(C)c2)C1 (configuration not stated),inactive: 16.4%
6,CC(=O)N1CC2(C1)[C@H](c1ccc(-c3ccc(F)cc3)cc1)[C@H](CO)N2C(C)=O,inactive: 14%
7,Cc1ccc(-c2cc(=O)c3ccc(F)cc3[nH]2)cc1,inactive: 12.4%
8,C=CCC1NS(=O)(=O)OC(COC)C1C (configuration not stated),inactive: -12.4%
9,CCCNC(=O)NC[C@@H]1[C@@H](c2ccc(C3=CCCC3)cc2)[C@@H](CO)N1C(=O)CC,inactive: -11.2% [at 10 µM]
10,CC1CCCN(CCCOc2ccc(Br)cc2Cl)C1 (configuration not stated),inactive: -14.9%
11,C[C@@H]1CN([C@H](C)CO)C(=O)c2cc(NC(=O)c3ccccc3)ccc2O[C@@H](C)CCCCO[C@@H]1CN(C)S(=O)(=O)c1ccc(F)cc1,inactive: 14.4%
12,CCOc1ccc(/C=N/NC(=O)c2ccccc2O)cc1CN1CC2CC(C1)c1cccc(=O)n1C2 (configuration not stated),inactive: -7.87%
13,CCOC(=O)C1CCN(Cc2c(C(=O)N3CCOCC3)nc3c(C)cccn23)CC1,inactive: 4.53%
14,CC(=O)Nc1cccc(OCCCNC(=O)c2ccc(C(C)(C)C)cc2)c1,inactive: -24%
15,O=C(C[C@@H]1CC[C@H]2[C@@H](COC[C@H](O)CN2C(=O)c2ccccc2F)O1)NCc1ccccc1,inactive: -6.08%
16,C[C@@H]1CCCCO[C@@H](CN(C)S(C)(=O)=O)[C@H](C)CN([C@@H](C)CO)C(=O)c2cc(NS(=O)(=O)c3ccc(Cl)cc3)ccc2O1,inactive: -4.56%
17,Fc1ccc(CNC2CCN(Cc3ccccc3)CC2)cc1,inactive: -0.778%
18,Cc1cccc(OC(C)C(=O)Nc2nc(-c3ccncc3)cs2)c1 (configuration not stated),inactive: 1.01%
19,Cc1oc2c(C)c3oc(=O)c(CCC(=O)NCCN4CCOCC4)c(C)c3cc2c1C,inactive: -8.16%
20,O=S1(=O)N[C@@H](Cc2ccccc2)COc2cc(N3CCOCC3)ccc21,inactive: -17.1%
21,C/C(CC(=O)Nc1ccc(Cl)c(Cl)c1)=N\NC(=O)Cc1ccccc1,inactive: -30.9%

row,SMILES,CPE protection (higher = active)
1,Cc1cc(C)n2c(NC3CCCCC3)c(-c3ccccn3)nc2n1,inactive: -20.9%
2,Cc1ccc2nc(-c3cccc(Br)c3)c(Cc3ccsc3)n2c1,inactive: -1.55%
3,CCOc1ccc(N(CC(=O)NC2CCCC(C)C2C)S(=O)(=O)c2c(C)noc2C)cc1 (configuration not stated),inactive: -13.2%
4,O=C(COC(=O)c1ccc(Cl)nc1)Nc1ccc(N2CCCCC2)cc1,inactive: -5.9%
5,Cc1cc(C(=O)N[C@@H](c2ccccc2)[C@]2(C)C[C@H]2[C@@H](C)C(=O)Nc2ccc3ccccc3c2)no1,inactive: -7.01%
6,O=S(=O)(Cc1cc(N2CCOCC2)nc(-c2ccccn2)n1)c1ccccc1,inactive: -19.3%
7,CCCC(=O)N(Cc1cc(=O)[nH]c2ccccc12)c1cccc(C)c1,inactive: -5.24%
8,CO[C@@H]1CN(C)C(=O)c2cc(NC(=O)c3ccccc3)ccc2OC[C@H](C)N(C(=O)C2CC2)C[C@@H]1C,inactive: 9.26%
9,CCOC(=O)[C@]12CCC=C1N(Cc1cccc3ccccc13)C(=O)[C@H](CC(=O)N1CCCC1)C2,inactive: -0.647%
10,COc1cccc(S(=O)(=O)N2CC3(CN(C(=O)Nc4ccc(F)cc4)[C@H](CO)c4[nH]c5cc(OC)ccc5c43)C2)c1,inactive: 6.53%
11,O=C(Nc1ccc2c(c1)OCCO2)c1cccc(C(=O)Nc2ccc3c(c2)OCCO3)c1,inactive: 16.2%
12,Cn1ccc2c(-c3cccc(C=O)c3)cc3c(c21)C1CCC3O1 (configuration not stated),inactive: -2.67%
13,O=C(CNC(=O)N1CC(=O)Nc2ccccc21)NCc1ccc(F)cc1,inactive: 13.8%
14,CCCNC(=O)C1(C)CCCN(Cc2ccc(C#N)cc2)C1 (configuration not stated),inactive: -18%
15,COc1ccc(C(=O)OCc2c(-c3cccc(OC)c3)ncc3ccccc23)cc1,inactive: 6.97%
16,Cc1cccc(C)c1-n1nnnc1C1(C)CCC(=O)N1Cc1cccnc1 (configuration not stated),inactive: 14.1%
17,CC(C)c1ccccc1OCCCCN1CCCCC1,inactive: 12.7%
18,COC(=O)[C@@H]1C[C@H]2CC[C@H](O)C[C@H]2N1Cc1ccc(C(F)(F)F)cc1,inactive: 2.97%
19,CCCCN1C(=O)C(CC(=O)NC2CC2)CC(C(=O)N(CC)CC)=C1C (configuration not stated),inactive: 17.3%
20,O=C(c1ccccc1F)N1CCC2CC1c1cc(N3CCCCC3)ccc12 (configuration not stated),inactive: -27%
21,CNc1cc(-c2ccc(O)cc2C)ncn1,inactive: -18%

row,SMILES,CPE protection (higher = active)
1,O=C(C[C@H]1CC[C@@H]2[C@H](COC[C@H](O)CN2C(=O)Cc2ccccc2)O1)NC1CCCC1,inactive: 2.96% [at 21 µM]
2,C[C@H](CO)N1C[C@H](C)[C@H](CN(C)C(=O)c2ccccc2)Oc2cc(C3=CCCCC3)ccc2S1(=O)=O,inactive: -19.4%
3,CCC1CN(S(=O)(=O)c2ccc3c(c2)NC(=O)CC(=O)N3)c2cc(Cl)ccc2O1 (configuration not stated),inactive: -4.24%
4,COc1ccc(-c2cnc3n2CCCCC3)cc1,inactive: 11.5%
5,CCc1ccccc1OCC(=O)NNCC(=O)Nc1cccc(C#N)c1,inactive: -16%
6,COc1cc2cc(CCCOC(=O)CCC(=O)O)oc(=O)c2cc1OC,inactive: 11.1%
7,O=C(Nc1ccccc1C(=O)NCc1cccnc1)c1ccccc1Cl,inactive: -2.23%
8,Cc1nc2ccc(C(=O)NC(C)(C)C)cn2c1N(C)C(=O)CCc1ccccc1,inactive: 8.15%
9,O=C(Nc1ccc2c(c1)CCC2)c1ccccc1,inactive: 8.37%
10,O=C(NC1CCCCC1)N[C@H]1C=C[C@@H](CC(=O)N2CCOCC2)O[C@@H]1CO,inactive: 15.7%
11,C=Cc1ccc(Cn2c(C)c(C(=O)NCc3cccc(C(F)(F)F)c3)sc2=O)cc1,inactive: -21.6%
12,C=CCOc1ccccc1CNn1c(C)n[nH]c1=S,inactive: -9.34%
13,Cc1cc(OCc2cc(C(=O)N(C)C(C)c3ccccn3)no2)cc(C)c1Cl (configuration not stated),inactive: -3.99%
14,Cc1c(C)c2c(OCC(=O)N3CCC(O)CC3)cc3c(c2oc1=O)CCC(C)(C)O3,inactive: 11%
15,CC(C)c1ccc(S(=O)(=O)N2CCN(C(=O)n3ccnc3)CC2)cc1,inactive: 3.32%
16,CCN(CC)CCCNc1nc(C)cc(COC)c1C#N,inactive: 8.73%
17,COCCNC(=O)C1CC2Cn3c(nc4cc(C)c(C)cc43)C2N1C (configuration not stated),inactive: -5.68%
18,CCNC(=O)C[C@H]1CC[C@H]2[C@@H](COC[C@H](O)CN2Cc2ccc(Cl)c(Cl)c2)O1,inactive: 10.1%
19,CCOc1ccc(C(=O)Nc2ccc(CN3CCOCC3)cc2)cc1Br,inactive: 5.95%
20,COc1ccc(CN2CCC[C@]3(N[C@H](c4ccc(OC)cc4)[C@@H]4C(=O)N(C)C(=O)[C@@H]43)C2=O)cc1,inactive: 14.6%
21,C[C@H]1CN([C@@H](C)CO)C(=O)c2cccc(NS(=O)(=O)c3ccccc3)c2O[C@@H]1CN(C)Cc1ccc(Cl)c(Cl)c1,inactive: -23.7%

row,SMILES,CPE protection (higher = active)
1,CCCN(C)C1CN(Cc2cn(Cc3ccc(C)cc3)nn2)S(=O)(=O)C1 (configuration not stated),inactive: 6.39%
2,C[C@@H]1CN([C@H](C)CO)C(=O)c2cccc(NC(=O)Nc3ccc4c(c3)OCO4)c2O[C@H]1CN(C)C(=O)Nc1ccccc1,inactive: -7.43%
3,COc1ccc(NC(=O)CN2CCc3ccccc3C2)cc1S(=O)(=O)N1CCOCC1,inactive: -7.67%
4,COc1ccc(S(=O)(=O)N2CCCC2C(=O)NCC(=O)Nc2cccc(Cl)c2C)cc1 (configuration not stated),inactive: 4.58%
5,COc1ccc2c(C)c(CCC(=O)NC3CC3)c(=O)oc2c1C,inactive: -2.98%
6,COC(=O)c1ccc2nc(-c3ccc(C#N)cc3)c(Cc3cccc(F)c3)n2c1,inactive: -9.85%
7,COc1ccc(NC(=O)CN(C)CCOc2ccc(Cl)cc2)cc1OC,inactive: 22.6%
8,O=C(NCC[C@H]1CC[C@H](NS(=O)(=O)c2ccc(Oc3ccccc3)cc2)[C@@H](CO)O1)C1CC1,inactive: 10.4%
9,CN(C[C@H](Cc1ccccc1)N(C[C@@H](CC1CCCCC1)N(CCc1ccccc1)N=O)N=O)N=O,inactive: -3.85%
10,COc1cc(NC(C)=O)c2ncccc2c1Br,inactive: -3.36%
11,CC(C)(C)OC(=O)N1CCC[C@@H]1C(=O)N1CCC[C@@H]1C(=O)NCc1ccccc1Cl,inactive: -5.38%
12,COC(=O)c1ccc2nc(-c3ccc(F)cc3)c(Cc3ccccc3OC)n2c1,inactive: 3.1%
13,COc1cccc(C2(c3cccc(OC)c3)CC2C(=O)Nc2ccc(F)cc2)c1 (configuration not stated),inactive: 11.7%
14,CCOC(=O)N1CCC(NS(=O)(=O)c2ccc(C#N)cc2)CC1,inactive: -10.4%
15,CC1(Cc2cccc(F)c2)C(=O)Nc2ccc(-c3cccnc3)cc21 (configuration not stated),inactive: -0.308%
16,COc1cccc(C(=O)N2CCOCC2)c1,inactive: 18.6%
17,COCCCN1C(=O)C(CC(=O)NC2CCCCC2)CC(C(=O)N(C(C)C)C(C)C)=C1C (configuration not stated),inactive: -11.1%
18,CCOC(=O)C1(Cc2ccccc2C)CCCN(C(=O)c2cc(C3CC3)[nH]n2)C1 (configuration not stated),inactive: -8.84%
19,CCC(=O)Nc1cccc(-c2cc3ccccc3oc2=O)c1,inactive: -32.2%

# Part of the list above, with bars between the fields.
row | SMILES | CPE protection (higher = active)
6 | COC(=O)c1ccc2nc(-c3ccc(C#N)cc3)c(Cc3cccc(F)c3)n2c1 | inactive: -9.85%
17 | COCCCN1C(=O)C(CC(=O)NC2CCCCC2)CC(C(=O)N(C(C)C)C(C)C)=C1C (configuration not stated) | inactive: -11.1%
18 | CCOC(=O)C1(Cc2ccccc2C)CCCN(C(=O)c2cc(C3CC3)[nH]n2)C1 (configuration not stated) | inactive: -8.84%
19 | CCC(=O)Nc1cccc(-c2cc3ccccc3oc2=O)c1 | inactive: -32.2%
